Measurements published in PubChem BioAssay AID1347423 (Functional Genomics Laboratory (NCATS/FGL), 2020).
The campaign covered roughly 52,000 sequences. About 210 (0.4%) were called active.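 The calls were made as follows: active = gene whose silencing raises cell survival under the drug, median off-target-corrected z-score across its silencing RNAs 2 or more; inactive = the rest.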 The list shows a part of the results.

assay: Resistance to Poly (ADP-Ribose) Polymerase inhibitor: Gene Identification via Genome-wide siRNA Screen; details: mouse BRCA2 R2336H ES cells, olaparib, CellTiter-Glo viability; active compounds read high
Procedure, shortened: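 Mouse BRCA2 R2336H ES cells were reverse-transfected with siRNA (20 nM final), treated at 48 h with 500 nM olaparib, and read by CellTiter-Glo after 72 h. Scores: MAD-based z per siRNA, median per gene, seed off-target correction.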

Sequence | z-score
GGUGGUCACCUAUUCAUGUTT against Daf1 | inactive: -0.424
GGAUAUUAACUAUGGGUUUTT against Tlr2 | inactive: 0.965
GGUCCUAAAUUUCUACCAATT against Dnase1l1 | inactive: 0.774
GGACCCUGACAUCAUUGUGTT against BC020025 | inactive: 0.0697
GGAACAGGAAUGGUAAUGCTT against 2610033C09Rik | inactive: 0.129
GCUGAAUUUUACGAUGAUUTT against 4631426G04Rik | inactive: -1.91
GGGAGGUCAAAAACUUCCATT against Coq3 | inactive: 0.333
GCUUUGACAACCUCUACUCTT against 9130011E15Rik | inactive: 1.32
GUCCCAAUACUACUUUUUUTT against V1rc20 | inactive: 0.353
GCUGGUGACUUGUAAAAGCTT against Meox1 | inactive: 0.169
GGGUCAGUUCAUAUGCCUCTT against Laptm5 | inactive: 1.89
CCCAGCUCACGUAUUUAUUTT against Pgf | inactive: 0.478
CCAUUUGAAGAGUAUUCCCTT against Lrrc2 | inactive: 0.665
GGCCUGGAGAAAAAACUUATT against Sfpq | inactive: 0.181
CCUUAGCUAAAUUUACUGGTT against Bche | inactive: 0.718
GCAGACAAUUGGUUUGAUUTT against MGC27863 | inactive: -0.778
CGCAACAGAUAGUAAAUAUTT against 1810047C23Rik | inactive: -2.38
GGGUGAAAUACUUCUUUGATT against Cxcl15 | inactive: -0.654
UGGUGGUGUUUUUUAACUCTT against Gm1705 | inactive: 0.124
GGCUCUAUCCACCAGUAAUTT against Cyp4a14 | inactive: 0.774
GGCAAAUAUUCAGUUUGGATT against Scarb2 | inactive: -0.695
GGAGAGUGAAGUGAAAAGCTT against Dhrs1 | inactive: 1.32
GCAGAUUGACUUCUCGGCUTT against Akap2 | inactive: 0.866
GCCAAGUUCAUUGGUGCUGTT against Atp5g1 | inactive: 2.04
GCAAAUUUACCUCAGUGCUTT against MOR253-5 | inactive: 0.322
CCAAGACCAUCCAAUUCAUTT against Il6 | inactive: 0.47

Sequence | z-score
GCGCAUCCUAUUCCAGCACTT against Pctp | inactive: -0.672
GGUGAUUAAGAAAGAGGAUTT against Exosc8 | inactive: -1.51
GGAAAAUGCCAUGAAAAAGTT against C130098D09 | inactive: 0.451
GGAUGCUACAGGAAGAGAATT against 5730568A12Rik | inactive: -0.316
GGUCCUUCGUAGUUGUGGUTT against 5830484A20Rik | inactive: -0.0119
GCUCCAUUUCAGUCAUCGATT against Klrc1 | inactive: 0.584
GGUGAAGUAUUUGACUAUUTT against Mark3 | inactive: 0.704
CGUGCACUUAGAAAACCCGTT against Garnl3 | inactive: -0.909
GGCAUGUUGAUGGGAAUUUTT against Srp9 | inactive: -1.67
GCACAAACCCUCGAACUUGTT against Nkx6-2 | inactive: 0.043
GGAAUCCUUUAUUCUUGUATT against 4931408L03Rik | inactive: -0.94
GGGCCUCCUUCUCAUCAUUTT against Scarf2 | inactive: -0.678
GGGUAUUAAUGCCUCUGCATT against Ebi2 | inactive: -0.725
GGUGCUGAAGAUGUGUUGATT against Phospho1 | inactive: -0.747
CCAUAUUUGAAGAAGUCCATT against Espl1 | inactive: -0.535
GGCCAAGAGGAUCAUGUCATT against 4933433C09Rik | inactive: 0.396
CUAUUUGGUAGCCUAACUUTT against Acsl1 | inactive: -0.0528
GCUACAGACUGAACAAUGATT against Rbm17 | inactive: -1
CCGUUUUUCAACGACGAGUTT against Fcna | inactive: 0.571
CCGUUACUACAAAUUCUAUTT against Zcchc8 | inactive: -0.0793
CGAACCACUUGUUUAAAAUTT against Cops2 | inactive: -1.69
GCAAGACUGGCAAAGCUUCTT against C130022K22Rik | inactive: -0.466
GCAGAAUAUUAACCAGUGUTT against Ptp4a2 | inactive: 0.668
GGAAGUCAAGUAGAACUGUTT against Agtr2 | inactive: -0.604
GGUAAACCGAGUGAUGACCTT against 1700019E19Rik | inactive: 0.285
GCUGAAUUGCUGGUAGAUUTT against AL022818 | inactive: -1.03

Sequence | z-score
GGGUAGAGACUACUUAGUATT against Pramel7 | inactive: -0.925
GGGAAGGCUGUGAAUACAGTT against Syt7 | inactive: 1.83
GGCUUUGACCUUUAUCACCTT against 4930556P03Rik | inactive: 0.0122
GGUUUUUGAAGAGUUAACATT against D16Ertd472e | inactive: 0.691
CGGUUUUGACCUUCCACCUTT against Olfr110 | inactive: -0.377
GCCUAUGCAGCUCUCUCUGTT against Acat3 | inactive: 0.495
GGUUAUCUUCUCUGUAACGTT against AU022521 | inactive: -0.856
GGAGAUACAGAAAUUUCUCTT against Baat | inactive: 0.517
CCCACCUAAAGAGAACAAATT against 2900006K08Rik | inactive: -0.0729
GGACAAAGAUGAAUAUGUGTT against Spag6 | inactive: 0.0984
GGUCAUUCUAGUCCAGGAUTT against Pkd1l2 | inactive: 0.908
GGAUCAUGAUUAGUUACAATT against Pdzrn3 | inactive: -1.47
GGGAGCCAAUGAAAUCAAGTT against F830020C16Rik | inactive: 1.64
GGUUCUCUGAAAUAAACUUTT against 9530002B09Rik | inactive: -0.575
GGAGUGGACUCACGUCUAATT against Crsp3 | inactive: -0.634
GCCAUCCGAUGCCUUAAUUTT against Mtap | inactive: 0.0555
GCUGAUUAUCACAUCAGUGTT against Dph2l1 | inactive: 0.948
GGAAGGAGACACAGAAGAGTT against Mlp | inactive: -0.343
GCACCACACGGAUGAGUUUTT against Tgm1 | inactive: 0.207
CCAUAUACCCUUGAAUUCCTT against 2500001K11Rik | inactive: -0.552
CCCUCAACCUGCAUUUUAATT against Lgals2 | inactive: 0.675
GCAGGAAUGUUCAGAAACATT against 4932441K18 | inactive: -1.27
GGUGUACGUCCUACAAGGUTT against Pofut2 | inactive: 0.641
GGAUUUUCAUACAAGGGCATT against Fmn | inactive: 1.49
GGACUUGAGUCAGCUCAUCTT against Fastk | inactive: 0.00409
GGCUGCUGAUUAUAUGUUCTT against Sprr2e | inactive: -0.5

Sequence | z-score
GGAUAACCUUUUUGAAUGGTT against Ube2j1 | inactive: 0.171
GCGUAUUACGAAAGAUGUGTT against 2810441A10Rik | inactive: -0.939
GGCCUUAGUUUAUACAUGUTT against Dusp18 | inactive: -0.0857
GGGCUAGCUAACCACAAUUTT against Glipr2 | inactive: -0.542
GGCCUUUAAGACCAUUCGATT against Scyl1 | inactive: 0.0871
GGAUGGACCUGUUGUGAUUTT against Ssr2 | inactive: 1.01
GCAAUUGUUAGAAAAAGGGTT against Rnasel | inactive: 0.426
GGGUAGCUUUAAAUAAAGGTT against Olfr801 | inactive: 1.81
GGGUAUAGAAUUGUCUAUUTT against Fn1 | inactive: -1.63
GGUAUGUCUGCAUAAAUGUTT against Cyp2c38 | inactive: -0.175
GUACCUAGGCAUCAAUGUCTT against Trhr2 | inactive: -1.17
GCAAUGUUCAAUAUCCAAGTT against Fut9 | inactive: 0.412
GGUUUUCGAUCAAGCCAUUTT against 1110002H13Rik | inactive: -1.25
GGAGAGAAUAAGAAGAAGATT against Ptprc | inactive: -1.05
GGCUUUUGACAAGCAUAUGTT against Snrpn | inactive: -0.877
GCUCAUCGUGUUUUCAACCTT against Cbr3 | inactive: 0.00324
GGUGAUGGUGUAAAAUACATT against Dab2 | inactive: 1.46
CCACAAUGAAUGGUAUUUGTT against A230035L05Rik | inactive: 0.867
GGGAGUUACCGUUUUGUAUTT against Herc1 | inactive: 1.58
GGUGUGUCGAAGUCGAAGGTT against Pip5kl1 | inactive: -0.569
GGUCAAAGUGUAACUUGUUTT against BC016198 | inactive: -1.68
GGCAUGGAGAUGCUACUGATT against Ptk2 | inactive: 0.419
GGCUGCUACACAUGCAGAUTT against Gucy2e | inactive: -1.75
GGACUUCAGAGUGGACAUUTT against Rgpr | inactive: 0.19
CGAGGACAAAAAUACCGACTT against Supt6h | inactive: -0.864
GGAAUGAACCUAUCUUAUATT against Prkab1 | inactive: 1.14

Quoted from above (2 entries):
Sequence | z-score
GGUAUGUCUGCAUAAAUGUTT against Cyp2c38 | inactive: -0.175
GUACCUAGGCAUCAAUGUCTT against Trhr2 | inactive: -1.17

Some of the entries so far, tab-delimited:
Sequence	z-score
GCUGAAUUUUACGAUGAUUTT against 4631426G04Rik	inactive: -1.91
GGGAGGUCAAAAACUUCCATT against Coq3	inactive: 0.333
